Reference: PMC2909902
Results are given in words; binding and its absence hold for the method and conditions named. Binding seen in cells or lysates may run through a third protein. Some results given as binding are weak or reduced against the parent protein; the word gives no strength.

Sequences of proteins named here, by UniProt entry; tags and fusion partners are left off.
UniProt P19474: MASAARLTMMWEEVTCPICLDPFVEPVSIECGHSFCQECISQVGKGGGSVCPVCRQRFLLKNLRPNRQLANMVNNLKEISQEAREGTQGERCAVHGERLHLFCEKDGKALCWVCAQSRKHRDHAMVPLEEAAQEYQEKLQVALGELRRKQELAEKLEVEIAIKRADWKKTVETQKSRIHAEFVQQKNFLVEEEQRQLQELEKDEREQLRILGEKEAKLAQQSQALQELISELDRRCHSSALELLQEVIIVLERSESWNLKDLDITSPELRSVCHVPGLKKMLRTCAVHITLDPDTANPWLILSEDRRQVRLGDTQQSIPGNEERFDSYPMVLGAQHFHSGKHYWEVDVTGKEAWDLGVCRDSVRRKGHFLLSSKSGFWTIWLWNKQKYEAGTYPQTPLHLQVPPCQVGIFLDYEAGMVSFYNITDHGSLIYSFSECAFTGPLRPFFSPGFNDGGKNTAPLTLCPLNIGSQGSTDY

Biological target: Ro52 (human (endogenous in HeLa)) (UniProt P19474)
Assay: co-IP; HeLa cells, unstimulated or stimulated with polyI:C, LPS, imiquimod or CpG-B for 4 and 18 hrs; lysed in RIPA buffer; immunoprecipitated with anti-Ro52 bound to protein-G sepharose, immunoblotted with anti-IRF7

B1: IRF7 (protein, UniProt Q92985 1-503)
chain: MALAPERAAPRVLFGEWLLGEISSGCYEGLQWLDEARTCFRVPWKHFARKDLSEADARIFKAWAVARGRWPPSSRGGGPPPEAETAERAGWKTNFRCALRSTRRFVMLRDNSGDPADPHKVYALSRELCWREGPGTDQTEAEAPAAVPPPQGGPPGPFLAHTHAGLQAPGPLPAPAGDKGDLLLQAVQQSCLADHLLTASWGADPVPTKAPGEGQEGLPLTGACAGGPGLPAGELYGWAVETTPSPGPQPAALTTGEAAAPESPHQAEPYLSPSPSACTAVQEPSPGALDVTIMYKGRTVLQKVVGHPSCTFLYGPPDPAVRATDPQQVAFPSPAELPDQKQLRYTEELLRHVAPGLHLELRGPQLWARRMGKCKVYWEVGGPPGSASPSTPACLLPRNCDTPIFDFRVFFQELVEFRARQRRGSPRYTIYLGFGQDLSAGRPKEKSLVLVKLEPWLCRVHLEGTQREGVSSLDSSSLSLCLSSANSLYDDIECFLMELEQPA
binding: binds
